According to article PMC6776666:
Results are given in words; binding and its absence hold for the method and conditions named. Binding seen in cells or lysates may run through a third protein. Some binding calls cover weakened binding; strength is not graded here. Tags and fused reporters may be left off the sequences shown.

Assays:
Test in all cases: co-IP; nuclear extracts of E14/T ESCs transfected with (Flag)3-Tet2 constructs and (HA)3-NANOG; 5 ug Flag antibody overnight at 4°C, Protein G Sepharose; lysis/wash buffer 20 mM Hepes pH 7.6, 350 mM KCl, 0.2 mM EDTA, 1.5 mM MgCl2, 20% glycerol, NP-40, DTT; Benzonase-treated; immunoblot
[1] = molecular target: T1, (Flag)3-TET2 truncation 1-828 (UniProt Q4JK59)
T1 sequence: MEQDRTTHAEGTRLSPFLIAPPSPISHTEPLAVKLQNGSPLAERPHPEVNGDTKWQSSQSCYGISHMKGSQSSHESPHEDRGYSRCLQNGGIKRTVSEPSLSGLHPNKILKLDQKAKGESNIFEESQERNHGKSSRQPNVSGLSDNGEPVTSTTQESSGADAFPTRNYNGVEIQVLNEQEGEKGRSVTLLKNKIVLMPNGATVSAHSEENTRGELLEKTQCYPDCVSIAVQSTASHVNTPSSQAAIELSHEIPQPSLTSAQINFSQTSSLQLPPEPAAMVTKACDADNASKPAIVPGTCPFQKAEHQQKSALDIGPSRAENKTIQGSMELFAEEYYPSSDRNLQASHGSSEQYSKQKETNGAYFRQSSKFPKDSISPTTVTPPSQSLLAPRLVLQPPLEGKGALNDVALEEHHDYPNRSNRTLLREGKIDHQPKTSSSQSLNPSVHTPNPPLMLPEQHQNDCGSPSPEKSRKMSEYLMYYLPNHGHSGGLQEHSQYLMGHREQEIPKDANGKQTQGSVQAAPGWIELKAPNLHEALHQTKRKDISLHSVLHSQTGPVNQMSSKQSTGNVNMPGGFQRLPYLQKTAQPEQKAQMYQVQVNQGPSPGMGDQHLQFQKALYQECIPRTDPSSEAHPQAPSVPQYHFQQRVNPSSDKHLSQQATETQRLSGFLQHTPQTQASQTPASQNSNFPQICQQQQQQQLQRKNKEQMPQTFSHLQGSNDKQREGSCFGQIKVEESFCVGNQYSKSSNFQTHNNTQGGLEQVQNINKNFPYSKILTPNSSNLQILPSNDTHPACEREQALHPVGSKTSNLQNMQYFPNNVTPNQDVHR

[2] = molecular target: (Flag)3-TET2 N terminus (1-1,221) (UniProt Q4JK59)
[3] = molecular target: (Flag)3-TET2 C terminus (924-1,911) (UniProt Q4JK59)
[4] = molecular target: (Flag)3-TET2 full length (TET2 WT) (UniProt Q4JK59)
[5] = molecular target: (Flag)3-TET2 truncation 924-1,377 (UniProt Q4JK59)

binding [1]: binds
binding [2]: binds
binding [3]: binds
binding [4]: binds
binding [5]: binds
B1: (HA)3-NANOG (protein, UniProt Q80Z64 1-305)
chain: MSVGLPGPHSLPSSEEASNSGNASSMPAVFHPENYSCLQGSATEMLCTEAASPRPSSEDLPLQGSPDSSTSPKQKLSSPEADKGPEEEENKVLARKQKMRTVFSQAQLCALKDRFQKQKYLSLQQMQELSSILNLSYKQVKTWFQNQRMKCKRWQKNQWLKTSNGLIQKGSAPVEYPSIHCSYPQGYLVNASGSLSMWGSQTWTNPTWSSQTWTNPTWNNQTWTNPTWSSQAWTAQSWNGQPWNAAPLHNFGEDFLQPYVQLQQNFSASDLEVNLEATRESHAHFSTPQALELFLNYSVTPPGEI
